Data as given in PubChem BioAssay AID504774 (Drosophila RNAi Screening Center, 2011).

Assay: 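Fly genes whose loss alters survival after alkylation damage to DNA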 (primary screen)
System: Drosophila Kc167 cells
Reagents: long dsRNA against Drosophila genes, about 0.25 µg dsRNA per well
Timing: about 6 days: 3 days knock-down, then 3 days with or without MMS
Conditions: methyl methanesulphonate 0.004% (w/v) for 3 days after knock-down
Read-out: 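ATP-dependent luminescence as a measure of live cells in MMS-exposed wells, quantile normalised within each plate, with replicate values also given as a mean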
Reading the numbers: mean viability with MMS and viability with MMS: higher = more surviving cells after MMS
In all, the deposit lists about 23,000 reagents; below is an unselected part of those that have a named target and a result. 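Values are quantile-normalised luminescence on an arbitrary scale; higher means more cells surviving MMS.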

Gene	DRSC id	mean viability with MMS	viability with MMS, replicate 1	viability with MMS, replicate 2
CG6652	DRSC10686	3.70e6	4.16e6	4.16e6
su(sable) (suppressor of sable)	DRSC18839	3.57e6	4.32e6	3.78e6
CG15601	DRSC19670	3.61e6	4.07e6	4.10e6
Pdfr (Pigment-dispersing factor receptor)	DRSC18614	3.40e6	3.95e6	3.78e6
dnk (deoxyribonucleoside kinase)	DRSC16933	3.54e6	4.10e6	3.93e6
Vha68-2 (Vacuolar H[+] ATPase 68 kDa subunit 2)	DRSC02721	3.49e6	3.97e6	3.95e6
dcma (decima)	DRSC00246	3.62e6	4.08e6	4.14e6
dcma (decima)	DRSC00338	3.74e6	4.21e6	4.15e6
Mms19	DRSC12188	3.27e6	3.71e6	3.71e6
CG13836 (retired record)	DRSC14686	3.67e6	4.19e6	4.12e6
CASK	DRSC14588	3.73e6	4.20e6	4.06e6
CASK	DRSC16597	3.78e6	4.31e6	4.28e6
CASK	DRSC16598	3.51e6	4.00e6	3.97e6
CASK	DRSC21917	3.59e6	4.12e6	3.98e6
CG30345	DRSC05144	3.50e6	4.01e6	3.93e6
Cdk1 (Cyclin-dependent kinase 1)	DRSC03504	2.87e6	3.07e6	3.38e6
CG18234	DRSC10309	3.63e6	4.16e6	4.05e6
Tsp86D (Tetraspanin 86D)	DRSC15607	3.57e6	3.97e6	4.12e6
mRpL52 (mitochondrial ribosomal protein L52)	DRSC06585	3.52e6	3.97e6	4.02e6
aru (arouser)	DRSC00802	3.62e6	4.06e6	4.19e6
aru (arouser)	DRSC22019	3.66e6	4.12e6	4.11e6
drl (derailed)	DRSC03523	3.51e6	3.94e6	4.03e6
CG12895	DRSC06210	3.53e6	4.02e6	3.99e6
CG12507	DRSC19463	3.49e6	3.98e6	3.91e6
CG1698	DRSC06640	3.59e6	4.07e6	4.06e6
CG15614	DRSC06567	3.61e6	4.06e6	4.10e6
Wnt10 (Wnt oncogene analog 10)	DRSC00990	3.81e6	4.31e6	4.19e6
Wnt10 (Wnt oncogene analog 10)	DRSC02797	3.55e6	3.97e6	4.07e6
Tsp3A (Tetraspanin 3A)	DRSC18656	3.55e6	4.09e6	3.97e6
CG8814	DRSC00707	3.72e6	4.16e6	4.32e6
Idgf5 (Imaginal disc growth factor 5)	DRSC06919	3.49e6	3.93e6	3.96e6
Alp2 (Alkaline phosphatase 2)	DRSC04354	3.33e6	3.78e6	3.73e6
CG34384	DRSC12644	3.67e6	4.15e6	4.10e6
CG34384	DRSC14855	3.55e6	4.00e6	4.06e6
CG34384	DRSC15444	3.53e6	3.95e6	4.07e6
CG34384	DRSC16575	3.62e6	4.09e6	4.10e6
eys (eyes shut)	DRSC00113	3.26e6	3.73e6	3.64e6
eys (eyes shut)	DRSC00402	3.44e6	3.94e6	3.83e6
eys (eyes shut)	DRSC00403	3.56e6	4.09e6	3.99e6
eys (eyes shut)	DRSC00695	3.39e6	3.96e6	3.61e6
CG5704	DRSC08572	3.55e6	4.07e6	3.98e6
CG10405	DRSC14238	3.37e6	3.91e6	3.71e6
rtv (retroactive)	DRSC19541	3.64e6	3.91e6	4.47e6
CG4866	DRSC06899	3.64e6	4.17e6	4.05e6
CG8560	DRSC10994	3.61e6	4.00e6	4.19e6
CG7142	DRSC16204	3.54e6	3.88e6	4.15e6

As entered above:
Value for CG7142 [DRSC16204] in “viability with MMS, replicate 1”: 3.88e6
Entry of CASK [DRSC16598] under “viability with MMS, replicate 1”: 4.00e6
dnk (deoxyribonucleoside kinase) [DRSC16933], viability with MMS, replicate 1 → 4.10e6
Entry of Vha68-2 (Vacuolar H[+] ATPase 68 kDa subunit 2) [DRSC02721] under “viability with MMS, replicate 2”: 3.95e6
eys (eyes shut) [DRSC00403], mean viability with MMS → 3.56e6
